# Experimental data from the supplement of paper PMC4604168 (melanoma cell lines).
# Some of the results follow. Single values are uncertain, as repeats are few or missing.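 Cells were imaged in 1,536-well plates, and nuclei stained with an antibody against cleaved PARP were counted against all DNA-stained nuclei to give the apoptosis fraction. Screening doses were chosen to leave most cells alive, and resting and induced cleaved-PARP levels differ strongly between cell lines.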
# Test system: COLO800
# Assay: cleaved PARP positive nuclei fraction relative to DMSO control; melanoma cells; higher = more apoptosis
# Conditions: library dose: low library concentration; 72 h
row,Structure (SMILES),cleaved PARP positive nuclei fraction [%]
1,"Nc1cccc2c1CN(C1CCC(=O)NC1=O)C2=O (stereo not given) [lenalidomide] + COc1ccc(-c2ccc3c(N4CCOCC4)nc(N4C[C@@H](C)O[C@@H](C)C4)nc3n2)cc1CO [KU0063794] (first compound 1 µM, partner dose 0.02 µM)",139
2,"NC(=O)Nc1cc(-c2cccc(F)c2)sc1C(=O)N[C@H]1CCCNC1 + Cn1cc(/C=C2\C(=O)Nc3cccnc32)c2ccccc21 [GW441756] (first compound 0.02 µM, partner dose 0.4 µM)",161
3,"COc1cc(Nc2ncc(F)c(Nc3ccc4c(n3)NC(=O)C(C)(C)O4)n2)cc(OC)c1OC [Tamatinib] + COc1cc(N2CCC(N3CCN(C)CC3)CC2)ccc1Nc1ncc(Cl)c(Nc2ccccc2S(=O)(=O)C(C)C)n1 [NVP-TAE684] (first compound 0.4 µM, partner dose 0.08 µM)",97.1
4,"NC(=O)Nc1cc(-c2cccc(F)c2)sc1C(=O)N[C@H]1CCCNC1 + CCN(CC)CCCCNc1ncc2cc(-c3cc(OC)cc(OC)c3)c(NC(=O)NC(C)(C)C)nc2n1 [PD173074] (first compound 0.02 µM, partner dose 0.1 µM)",173
5,"O=C(CCCCCCC(=O)Nc1ccccc1)NO [vorinostat] + CCCCCCCCCCCC1=C(O)C(=O)C=C(O)C1=O [Embelin] (first compound 0.08 µM, partner dose 1.2 µM)",87.5
6,"O=C(Nc1cccc(Cl)c1)Nc1ncc(CCNc2ncnc3ccsc23)s1 + COc1ccc(-c2ccc3c(N4CCOCC4)nc(N4C[C@@H](C)O[C@@H](C)C4)nc3n2)cc1CO [KU0063794] (first compound 0.0008 µM, partner dose 0.02 µM)",219
7,"Cc1nc(Nc2ncc(C(=O)Nc3c(C)cccc3Cl)s2)cc(N2CCN(CCO)CC2)n1 [dasatanib] + CCN(CC)CCCCNc1ncc2cc(-c3cc(OC)cc(OC)c3)c(NC(=O)NC(C)(C)C)nc2n1 [PD173074] (first compound 0.004 µM, partner dose 0.1 µM)",47.4
8,"CC1(C)NC(=O)N(c2ccc([N+](=O)[O-])c(C(F)(F)F)c2)C1=O [nilutamide] + COc1ccc(COc2ccc(Cc3cnc(N)nc3N)cc2OC)cc1 [GW2580] (first compound 1 µM, partner dose 1 µM)",133
9,"COCC[n+]1c2c(n(Cc3cnccn3)c1C)C(=O)c1ccccc1C2=O + CCc1ccc(CCOc2ccc(CC3SC(=O)NC3=O)cc2)nc1 [pioglitazone] (first compound 0.0004 µM, partner dose 2 µM)",45.1
10,"O=C(CCCCCCC(=O)Nc1ccccc1)NO [vorinostat] + COc1ccc(-c2ccc3c(N4CCOCC4)nc(N4C[C@@H](C)O[C@@H](C)C4)nc3n2)cc1CO [KU0063794] (first compound 0.08 µM, partner dose 0.02 µM)",83.9
11,"COc1cc(Nc2ncc(F)c(Nc3ccc4c(n3)NC(=O)C(C)(C)O4)n2)cc(OC)c1OC [Tamatinib] + O=S(=O)(c1ccccc1)N(CC(F)(F)F)c1ccc(C(O)(C(F)(F)F)C(F)(F)F)cc1 [T0901317] (first compound 0.4 µM, partner dose 1.4 µM)",154
12,"NC(=O)Nc1cc(-c2cccc(F)c2)sc1C(=O)N[C@H]1CCCNC1 + O=S(=O)(c1ccccc1)N(CC(F)(F)F)c1ccc(C(O)(C(F)(F)F)C(F)(F)F)cc1 [T0901317] (first compound 0.02 µM, partner dose 1.4 µM)",81
13,"Cn1nnc2c(C(N)=O)ncn2c1=O [temozolomide] + COc1ccc(-c2ccc3c(N4CCOCC4)nc(N4C[C@@H](C)O[C@@H](C)C4)nc3n2)cc1CO [KU0063794] (first compound 2 µM, partner dose 0.02 µM)",111
14,"Nc1cccc2c1CN(C1CCC(=O)NC1=O)C2=O (stereo not given) [lenalidomide] + c1cc(-c2cnn3cc(-c4ccc(OCCN5CCCCC5)cc4)cnc23)ccn1 [Dorsomorphin] (first compound 1 µM, partner dose 0.4 µM)",56.6
15,"Cn1cncc1[C@@](N)(c1ccc(Cl)cc1)c1ccc2c(c1)c(-c1cccc(Cl)c1)cc(=O)n2C [tipifarnib] + c1cc(-c2cnn3cc(-c4ccc(OCCN5CCCCC5)cc4)cnc23)ccn1 [Dorsomorphin] (first compound 0.01 µM, partner dose 0.4 µM)",124

# Excerpt: entries 11 to 12
row,Structure (SMILES),cleaved PARP positive nuclei fraction [%]
11,"COc1cc(Nc2ncc(F)c(Nc3ccc4c(n3)NC(=O)C(C)(C)O4)n2)cc(OC)c1OC [Tamatinib] + O=S(=O)(c1ccccc1)N(CC(F)(F)F)c1ccc(C(O)(C(F)(F)F)C(F)(F)F)cc1 [T0901317] (first compound 0.4 µM, partner dose 1.4 µM)",154
12,"NC(=O)Nc1cc(-c2cccc(F)c2)sc1C(=O)N[C@H]1CCCNC1 + O=S(=O)(c1ccccc1)N(CC(F)(F)F)c1ccc(C(O)(C(F)(F)F)C(F)(F)F)cc1 [T0901317] (first compound 0.02 µM, partner dose 1.4 µM)",81
